The text below walks through data of patent publication US20090291081A1.

By UniProt entry, the sequences of proteins in these tests, tags left out. Residues count along the entry.
UniProt P01584, residues 117-269: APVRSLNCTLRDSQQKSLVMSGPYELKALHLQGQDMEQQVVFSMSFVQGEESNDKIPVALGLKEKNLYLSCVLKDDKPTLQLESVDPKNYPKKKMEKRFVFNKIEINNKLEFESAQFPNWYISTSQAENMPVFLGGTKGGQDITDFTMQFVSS

For the assay, the target named is human IL-1β (human) (UniProt P01584). The experiment in a line: Table 60 heading; dAbs from selection on antigen.

These are yes or no findings as the source states them, for the method shown. Some entries that bind do so weakly or less than the wild type.

B1: ABT2-108-613 (protein)
VH: EVQLLESGGGLVQPGGSLRLSCAASGFTFAEYTMMWVRQAPGKGLEWVSRIGQDGKNTYYADSVKGRFTISRDNSKNTLYLQMNSLRAEDTAVYYCAKYTGRVFEHHLFDYWGQGTLVTVSS
B1: the binding entry is listed as “binds”.

B2: ABT2-108 (protein)
VH: EVQLLESGGGLVQPGGSLRLSCAASGFTFAEYTMMWVRQAPGKGLEWVSRIGQDGKNTYYADSVKGRFTISRDNSKNTLYLQMNSLRAEDTAVYYCAKYTGRVGVHHLFDYWGQGTLVTSS
Regarding B2, the binding result was “binds”.
